Reference: US7846956B2, “Malononitrile compound as pesticides” (Sumitomo Chemical Company, Limited, priority 2004, dated 2010)
Some entries share one result that the patent states for a list of compounds.

Assays:
Aphis gossypii = experiment: Experimental Example 2: spray on cucumber, number of Aphis gossypii; format: in vivo; conditions: 500 ppm active ingredient, 20 ml/cup sprayed on cucumber with about 20 Aphis gossypii; six days after the treatments
Nilaparvata lugens = experiment: Experimental Example 1: spray on rice plants, number of parasitic Nilaparvata lugens; format: in vivo; conditions: 500 ppm active ingredient, 20 ml/cup sprayed on rice plants; 30 first-instar larvae released; sixth day after release; 25° C.

Compound	number of the parasitic pest (Aphis gossypii)	number of the parasitic pest (Nilaparvata lugens)
CC(C)(C)c1cc(CC(C#N)(C#N)CCC(F)(F)F)[nH]n1 [present compound (1)]	≤ 3	≤ 3
Cn1nc(C(C)(C)C)cc1CC(C#N)(C#N)CCC(F)(F)F [present compound (2)]	≤ 3	≤ 3
CC(C)(C)c1cc(CC(C#N)(C#N)CCC(F)(F)F)n(CC(F)(F)F)n1 [present compound (3)]	–	≤ 3
CC(C)(C)c1cc(CC(C#N)(C#N)CCC(F)(F)F)on1 [present compound (4)]	≤ 3	≤ 3
CC(C)(C)c1cc(CC(C#N)(C#N)CCC(F)(F)F)sn1 [present compound (5)]	≤ 3	≤ 3
CC(C)(C)c1cc(CC(C#N)(C#N)CCC(F)(F)F)no1 [present compound (6)]	≤ 3	≤ 3
N#CC(C#N)(CCC(F)(F)F)Cc1cnn(Cc2ccccc2)c1 [present compound (8)]	≤ 3	≤ 3
CC(C)(C)c1nc(CC(C#N)(C#N)CCC(F)(F)F)co1 [present compound (9)]	–	≤ 3
Cc1nc(CC(C#N)(C#N)CCC(F)(F)F)cs1 [present compound (11)]	≤ 3	≤ 3
CC(C)(C)c1nc(CC(C#N)(C#N)CCC(F)(F)F)cs1 [present compound (12)]	–	≤ 3
N#CC(C#N)(CCC(F)(F)F)Cc1csc(Cl)n1 [present compound (13)]	–	≤ 3
Cc1ncc(CC(C#N)(C#N)CCC(F)(F)F)s1 [present compound (15)]	≤ 3	≤ 3
CCc1ncc(CC(C#N)(C#N)CCC(F)(F)F)s1 [present compound (16)]	–	≤ 3
CC(C)(C)c1ncc(CC(C#N)(C#N)CCC(F)(F)F)s1 [present compound (17)]	≤ 3	≤ 3
N#CC(C#N)(CCC(F)(F)F)Cc1cnc(Cl)s1 [present compound (18)]	–	≤ 3
C#CCOc1ncc(CC(C#N)(C#N)CCC(F)(F)F)s1 [present compound (19)]	≤ 3	≤ 3
CC(C)(C)c1nsc(CC(C#N)(C#N)CCC(F)(F)F)n1 [present compound (21)]	–	≤ 3
CC(C)(C)c1nnc(CC(C#N)(C#N)CCC(F)(F)F)o1 [present compound (22)]	–	≤ 3
CCc1nc(CC(C#N)(C#N)CCC(F)(F)F)no1 [present compound (23)]	–	≤ 3
CC(C)(C)c1nc(CC(C#N)(C#N)CCC(F)(F)F)no1 [present compound (24)]	≤ 3	≤ 3
CC1(c2nc(CC(C#N)(C#N)CCC(F)(F)F)no2)CC1 [present compound (25)]	≤ 3	≤ 3
CC(C)(C)Cc1nc(CC(C#N)(C#N)CCC(F)(F)F)no1 [present compound (26)]	–	≤ 3
CC(c1cnn(C(C)(C)C)c1)C(C#N)(C#N)CCC(F)(F)F (centres unmarked) [present compound (27)]	≤ 3	≤ 3
Cc1cccc2nc(CC(C#N)(C#N)CCC(F)(F)F)cn12 [present compound (29)]	–	≤ 3

Compound	number of the parasitic pest (Aphis gossypii)	number of the parasitic pest (Nilaparvata lugens)
C#CCn1cc(CC(C#N)(C#N)CCC(F)(F)F)cn1 [present compound (31)]	–	≤ 3
C=C(C)CC(C#N)(C#N)Cc1cnn(C(C)(C)C)c1 [present compound (32)]	–	≤ 3
CC(C)(C)n1ncc(CC(C#N)(C#N)CCC(F)(F)F)c1-n1cccc1 [present compound (34)]	–	≤ 3
N#CC(C#N)(CCC(F)(F)F)Cc1cc(C(F)(F)F)on1 [present compound (35)]	≤ 3	≤ 3
CC(c1cc(C(F)(F)F)on1)C(C#N)(C#N)CCC(F)(F)F (centres unmarked) [present compound (36)]	≤ 3	≤ 3
CCC(c1cc(C(F)(F)F)on1)C(C#N)(C#N)CCC(F)(F)F (centres unmarked) [present compound (37)]	≤ 3	≤ 3
N#CC(C#N)(CCC(F)(F)F)Cc1cc(C(F)(F)C(F)(F)F)on1 [present compound (38)]	≤ 3	≤ 3
CC(C)c1cc(CC(C#N)(C#N)CCC(F)(F)F)no1 [present compound (40)]	≤ 3	≤ 3
CC(C)c1cc(C(C)C(C#N)(C#N)CCC(F)(F)F)no1 (centres unmarked) [present compound (41)]	≤ 3	≤ 3
CC(c1cc(C(C)(C)C)on1)C(C#N)(C#N)CCC(F)(F)F (centres unmarked) [present compound (42)]	≤ 3	≤ 3
N#CC(C#N)(CCC(F)(F)F)Cc1cc(CF)on1 [present compound (45)]	≤ 3	≤ 3
N#CC(C#N)(CCC(F)(F)F)Cc1cc(C(F)F)on1 [present compound (47)]	≤ 3	≤ 3
CC(O)c1cc(CC(C#N)(C#N)CCC(F)(F)F)no1 (centres unmarked) [present compound (49)]	≤ 3	–
CC(F)c1cc(CC(C#N)(C#N)CCC(F)(F)F)no1 (centres unmarked) [present compound (50)]	≤ 3	≤ 3
CC(F)(F)c1cc(CC(C#N)(C#N)CCC(F)(F)F)no1 [present compound (52)]	≤ 3	≤ 3
CC(C)(O)c1cc(CC(C#N)(C#N)CCC(F)(F)F)no1 [present compound (53)]	≤ 3	≤ 3
CC(C)(F)c1cc(CC(C#N)(C#N)CCC(F)(F)F)no1 [present compound (54)]	≤ 3	≤ 3
CC(c1cc(C(C)(C)O)on1)C(C#N)(C#N)CCC(F)(F)F (centres unmarked) [present compound (62)]	≤ 3	≤ 3
CCC(c1cc(C(C)(C)O)on1)C(C#N)(C#N)CCC(F)(F)F (centres unmarked) [present compound (64)]	–	≤ 3
CC(C)C(c1cc(C(C)(C)O)on1)C(C#N)(C#N)CCC(F)(F)F (centres unmarked) [present compound (65)]	≤ 3	≤ 3
C=CC(c1cc(C(C)(C)O)on1)C(C#N)(C#N)CCC(F)(F)F (centres unmarked) [present compound (66)]	≤ 3	–
C#CCOC(C)(C)c1cc(CC(C#N)(C#N)CCC(F)(F)F)no1 [present compound (67)]	≤ 3	≤ 3
COc1cc(CC(C#N)(C#N)CCC(F)(F)F)on1 [present compound (68)]	–	≤ 3
CC[S+]([O-])c1ncc(CC(C#N)(C#N)CCC(F)(F)F)n1C (centres unmarked) [present compound (70)]	≤ 3	–
